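A counterscreen of light output from a stable CMV-driven luciferase line in HEK293 cells, measured one day after compound addition. Percent change in reporter signal versus neutral control wells at the top tested concentration; more negative values mean stronger inhibition. Inconclusive means the independent runs disagreed, the fit was flat at 30 to 70% inhibition, or the curve fit was poor.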

Values are in %. All entries here are filed as inconclusive. Only part of the assay is shown, chiefly results filed as inconclusive.

{"structure": "Cc1ccc(S(=O)(=O)N2CCCCC2)cc1NC(=O)Cn1ncc(Cl)c(Cl)c1=O", "condition": "at 35 µM (top of the series)", "activity change (%)": "-53.91"}
{"structure": "COc1cccc2c1C(=O)c1c(O)c3c(c(O)c1C2=O)C[C@@](O)(C(C)=O)C[C@@H]3O[C@H]1C[C@H](N)[C@H](O)[C@H](C)O1", "condition": "at 35 µM (top of the series)", "activity change (%)": "-94.92"}
{"structure": "COc1ccc(NC(=O)N2CCCCN3[C@@H](CO)[C@@H](c4ccc(C#Cc5ccccc5)cc4)[C@@H]3C2)cc1", "condition": "at 30 µM (top of the series)", "activity change (%)": "-2.479"}
{"structure": "CCC1CCCCN1S(=O)(=O)c1ccc(NC(=O)c2nc(S(C)(=O)=O)ncc2Cl)cc1", "stereo": "stereo not shown", "condition": "at 35 µM (top of the series)", "activity change (%)": "-74.58"}
{"structure": "O=C(Nc1cccc(C(F)(F)F)c1)Nc1ccc(N2CCCC2)c(S(=O)(=O)Nc2ccccc2Cl)c1", "condition": "at 35 µM (top of the series)", "activity change (%)": "-12.94"}
{"structure": "CCCC(=O)NC(c1ccc(C(C)C)cc1)c1ccc2cccnc2c1O", "stereo": "stereo not shown", "condition": "at 35 µM (top of the series)", "activity change (%)": "-38.8"}
{"structure": "O=C(CCCN1C(=O)/C(=C\\c2cccc(Br)c2)SC1=S)Nc1cccnc1", "condition": "at 35 µM (top of the series)", "activity change (%)": "2.324"}
{"structure": "Cc1ccc(-c2ccc([C@H]3[C@H](CO)N4CCCCN(S(=O)(=O)c5cccc(C)c5)C[C@@H]34)cc2)cc1", "condition": "at 35 µM (top of the series)", "activity change (%)": "-28.6"}
{"structure": "CC1CCC/C=C/C2CC(O)CC2C(O)/C=C/C(=O)O1", "stereo": "stereo not shown", "condition": "at 35 µM (top of the series)", "activity change (%)": "-64.67"}
{"structure": "O=C(CCCN1C(=O)/C(=C/c2cccc(Br)c2)SC1=S)Nc1ccccn1", "condition": "at 35 µM (top of the series)", "activity change (%)": "-76.38"}
{"structure": "COc1ccc(-c2sc3ccccc3c2-c2ccc(OCCN(C)C)cc2)cc1", "condition": "at 35 µM (top of the series)", "activity change (%)": "-16.27"}
{"structure": "COc1ccccc1NS(=O)(=O)c1cccc(C(=O)N/N=C/c2ccc([N+](=O)[O-])o2)c1", "condition": "at 35 µM (top of the series)", "activity change (%)": "-50.83"}
{"structure": "C[C@@H]1CCCCO[C@H](CN(C)C(=O)Cc2ccccc2)[C@@H](C)CN([C@@H](C)CO)C(=O)c2cc(NS(=O)(=O)c3ccc(Cl)cc3)ccc2O1", "condition": "at 35 µM (top of the series)", "activity change (%)": "-38.55"}
{"structure": "C[C@@H]1CN([C@H](C)CO)C(=O)c2cc(NS(=O)(=O)c3ccc(Cl)cc3)ccc2O[C@@H](C)CCCCO[C@H]1CN(C)Cc1ccc(Cl)c(Cl)c1", "condition": "at 35 µM (top of the series)", "activity change (%)": "-49.99"}
{"structure": "COc1ccccc1-n1cc([C@@H]2C[C@H]3CN(c4ccccc4)C(=O)[C@]34CCCN24)cn1", "condition": "at 35 µM (top of the series)", "activity change (%)": "2.77"}
{"structure": "COc1ccc(-c2cc(C(F)(F)F)nc(S(=O)(=O)CCCC(=O)Nc3cc(C)on3)n2)cc1OC", "condition": "at 35 µM (top of the series)", "activity change (%)": "21.87"}
{"structure": "C[C@@H]1CCCCO[C@H](CN(C)C(=O)Nc2ccc(F)cc2)[C@@H](C)CN([C@@H](C)CO)C(=O)c2cc(NS(=O)(=O)c3ccc(Cl)cc3)ccc2O1", "condition": "at 35 µM (top of the series)", "activity change (%)": "-36.27"}
{"structure": "COc1ccc(S(=O)(=O)Nc2ccc3c(c2)C(=O)N([C@@H](C)CO)C[C@H](C)[C@@H](CN(C)C(=O)Nc2ccc(C(F)(F)F)cc2)OCCCC[C@@H](C)O3)cc1", "condition": "at 35 µM (top of the series)", "activity change (%)": "-29.25"}
{"structure": "Cc1noc(C)c1S(=O)(=O)Nc1ccc2c(c1)CC(=O)N([C@@H](C)CO)C[C@@H](C)[C@H](CN(C)Cc1ccc(Cl)c(Cl)c1)O2", "condition": "at 35 µM (top of the series)", "activity change (%)": "-46.28"}

Once more, the final 2:

{"structure": "COc1ccc(S(=O)(=O)Nc2ccc3c(c2)C(=O)N([C@@H](C)CO)C[C@H](C)[C@@H](CN(C)C(=O)Nc2ccc(C(F)(F)F)cc2)OCCCC[C@@H](C)O3)cc1", "condition": "at 35 µM (top of the series)", "activity change (%)": "-29.25"}
{"structure": "Cc1noc(C)c1S(=O)(=O)Nc1ccc2c(c1)CC(=O)N([C@@H](C)CO)C[C@@H](C)[C@H](CN(C)Cc1ccc(Cl)c(Cl)c1)O2", "condition": "at 35 µM (top of the series)", "activity change (%)": "-46.28"}

From PubChem BioAssay record AID743020 (Broad Institute, 2013).